Results reported in publication PMC7862700.
Some of the results follow. Construct or isoform of the protein are uncertain.

molecular target: T1, ETS1 (UniProt P14921); assay: DAPPL (digital affinity profiling via proximity ligation, sequencing); details: 10 mM Tris-HCl pH 7.5, 50 mM NaCl, 1 mM DTT, 4% glycerol, room temperature, 30 min; GST-TFs on glutathione beads, 16-mer random dsDNA library, 0.1% …; high values mean tight binding; double strand, one strand shown; scale: fold enrichment (6-mer frequency, TF over GST control)
T1 sequence: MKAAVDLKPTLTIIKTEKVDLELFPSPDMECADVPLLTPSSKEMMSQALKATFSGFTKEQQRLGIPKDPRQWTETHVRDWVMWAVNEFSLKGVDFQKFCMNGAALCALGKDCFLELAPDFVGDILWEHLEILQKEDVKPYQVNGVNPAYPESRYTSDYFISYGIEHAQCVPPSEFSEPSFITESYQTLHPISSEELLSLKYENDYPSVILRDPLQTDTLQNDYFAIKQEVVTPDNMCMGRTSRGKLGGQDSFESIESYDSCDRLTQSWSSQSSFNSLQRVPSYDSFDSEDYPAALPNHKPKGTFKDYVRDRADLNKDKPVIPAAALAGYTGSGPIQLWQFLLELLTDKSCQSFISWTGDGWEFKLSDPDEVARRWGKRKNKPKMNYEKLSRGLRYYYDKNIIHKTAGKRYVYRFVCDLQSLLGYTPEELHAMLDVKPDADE

Sequence | binding signal
TAATTC | 1.43
CCACGA | 1.18
ATAGGG | 0.955
CATCTC | 1.28
ACACGC | 1.11
ACGACC | 1.25
CTGGTC | 1.29
GTTTGA | 1.18
CGTTAT | 1.13
CCATCC | 1.24
GAAGTG | 1.48
TGTTTA | 1.15
ACCCAT | 1.24
GTAGTT | 1.07
GCTCCC | 1.34
TACCTA | 1.22
TGATTT | 1.23
AATCTG | 1.47
CGTATA | 1.18
GTTCCC | 1.22

Sequence | binding signal
AGCGAT | 1.07
CCCCTC | 1.39
TACTCC | 1.29
ACAGCT | 1.16
ATCCCG | 1.32
AAATCT | 1.34
GAAACT | 1.26
AACTTT | 1.22
AAGTTG | 1.07
ATAGCC | 0.979
ACGTCC | 1.66
TCTACC | 1.48
CTACCG | 1.49
TAGTTA | 1.23
GCGATC | 1.07
TTGTTT | 1.35
GGTGTT | 0.947
TATGAG | 0.966
AGTAAT | 1.05

Some values from the results shown.
In binding signal, CGTATA shows 1.18
In binding signal, AAGTTG shows 1.07
In binding signal, GAAGTG shows 1.48
